Consider two molecules from publication PMC4714748.

The target in assay [1] is T1, WDR76-3XFLAG (Neurospora crassa) (UniProt Q7S1H9).
T1 sequence: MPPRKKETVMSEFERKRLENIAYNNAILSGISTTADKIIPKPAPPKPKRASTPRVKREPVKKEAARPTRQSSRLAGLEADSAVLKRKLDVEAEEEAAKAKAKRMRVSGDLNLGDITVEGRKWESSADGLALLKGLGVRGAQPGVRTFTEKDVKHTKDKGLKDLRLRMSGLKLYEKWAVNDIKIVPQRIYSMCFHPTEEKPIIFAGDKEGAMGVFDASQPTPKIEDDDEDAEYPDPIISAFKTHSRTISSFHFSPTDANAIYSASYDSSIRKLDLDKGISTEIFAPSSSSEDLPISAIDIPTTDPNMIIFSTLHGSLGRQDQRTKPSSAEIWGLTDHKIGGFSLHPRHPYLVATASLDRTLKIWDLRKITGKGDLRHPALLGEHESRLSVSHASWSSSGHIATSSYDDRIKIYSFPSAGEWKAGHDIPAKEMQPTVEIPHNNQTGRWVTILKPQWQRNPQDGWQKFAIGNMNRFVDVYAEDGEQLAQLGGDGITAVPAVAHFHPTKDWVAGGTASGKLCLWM
Kind of assay: affinity purification with mass spectrometry; WDR76-3XFLAG purified on M2 FLAG affinity gel from N. crassa extracts; extraction buffer with 200 mM NaCl and, separately, with 250 mM KCl.

The target in assay [2] is MUS-30-3XFLAG (Neurospora crassa) (UniProt Q7SAC4). Kind of assay: affinity purification with mass spectrometry; MUS-30-3XFLAG purified on M2 FLAG affinity gel from N. crassa extracts; extraction buffer 50 mM HEPES-KOH pH 7.6, 2 mM EDTA, 10% glycerol, 2 mM DTT with 150 mM or 200 mM NaCl; hits also found in the mock, DIM-5-3XFLAG or DIM-9-3XFLAG samples were ….
Assay [3] has the same target. Kind of assay: affinity purification with mass spectrometry; MUS-30-3XFLAG purified on M2 FLAG affinity gel from N. crassa extracts; extraction buffer 50 mM HEPES-KOH pH 7.6, 2 mM EDTA, 10% glycerol, 2 mM DTT with 250 mM KCl.

No constants are given. Whether binding was seen depends on the method and setting. In cells and extracts the contact can be indirect. Here binding means that the protein was enriched with, or labelled near, the bait; the list need not be complete. For part of these data: No binding means not detected with the bait. For part of these data: Sequences can lack the tags named with a protein.

Regarding MUS-30 (enzyme), the binding result in assay [1] is listed as “binds”.

B1: WDR76 (NCU09302) (protein, UniProt Q7S1H9 1-521)
chain: T1 sequence
Turning to B1, the binding entry in assay [2] was “binds”; in assay [3] it was “no binding (only in buffer containing 250 mM KCl)”.
